Assay results: the supplement of paper PMC10077471
In all, about 1,900 compounds were measured (“excess over highest single agent (ExcessHSA) synergy score, 6x6 matrix”: median about -83, lowest 2% from about -370 on). The list shows a part of the results.

What follows are compounds tested on NCI-H446 (assay: excess over highest single agent (ExcessHSA) synergy score, 6x6 matrix; higher = less synergy (more negative = stronger synergy)). Details: 72 h; CellTiter-Glo viability.

Structure (SMILES) | excess over highest single agent
CCOC(=O)c1c(CSc2ccccc2)n(C)c2cc(Br)c(O)c(CN(C)C)c12 + Cc1sc2c(c1C)C(c1ccc(Cl)cc1)=N[C@@H](CC(=O)OC(C)(C)C)c1nnc(C)n1-2 [NCGC00250412-19] | -113
Cc1ccn(-c2ccc(-c3ncco3)cc2)c(=O)c1-c1ccc2nc(N)ncc2c1 + Cc1sc2c(c1C)C(c1ccc(Cl)cc1)=N[C@@H](CC(=O)OC(C)(C)C)c1nnc(C)n1-2 [NCGC00250412-19] | -189
O=C1c2ccccc2-[n+]2ccc3c([nH]c4ccccc43)c21 + Cc1sc2c(c1C)C(c1ccc(Cl)cc1)=N[C@@H](CC(=O)OC(C)(C)C)c1nnc(C)n1-2 [NCGC00250412-19] | -179
CCN(CCO)CCCC(C)Nc1ccnc2cc(Cl)ccc12 (stereo unspecified) + Cc1sc2c(c1C)C(c1ccc(Cl)cc1)=N[C@@H](CC(=O)OC(C)(C)C)c1nnc(C)n1-2 [NCGC00250412-19] | -151
Cc1nc(Nc2ncc(C(=O)Nc3c(C)cccc3Cl)s2)cc(N2CCN(CCO)CC2)n1 + Cc1sc2c(c1C)C(c1ccc(Cl)cc1)=N[C@@H](CC(=O)OC(C)(C)C)c1nnc(C)n1-2 [NCGC00250412-19] | -55.8
COc1cc(N2CCC(N3CCN(C)CC3)CC2)ccc1Nc1ncnc(Nc2ccccc2S(=O)(=O)C(C)C)n1 + Cc1sc2c(c1C)C(c1ccc(Cl)cc1)=N[C@@H](CC(=O)OC(C)(C)C)c1nnc(C)n1-2 [NCGC00250412-19] | -165
Cc1cc(Nc2nc(N[C@@H](C)c3ccc(F)cc3)c(C#N)cc2F)n[nH]1 + Cc1sc2c(c1C)C(c1ccc(Cl)cc1)=N[C@@H](CC(=O)OC(C)(C)C)c1nnc(C)n1-2 [NCGC00250412-19] | -209
CC(C)c1ccc2c(c1)c(SC(C)(C)C)c(CC(C)(C)C(=O)O)n2Cc1ccc(Cl)cc1 + Cc1sc2c(c1C)C(c1ccc(Cl)cc1)=N[C@@H](CC(=O)OC(C)(C)C)c1nnc(C)n1-2 [NCGC00250412-19] | -156
CC(C)(Sc1ccc(CCN(CCCCC2CCCCC2)C(=O)NC2CCCCC2)cc1)C(=O)O + Cc1sc2c(c1C)C(c1ccc(Cl)cc1)=N[C@@H](CC(=O)OC(C)(C)C)c1nnc(C)n1-2 [NCGC00250412-19] | -134
CC/C(=C(/CC)c1ccc(O)cc1)c1ccc(O)cc1 + Cc1sc2c(c1C)C(c1ccc(Cl)cc1)=N[C@@H](CC(=O)OC(C)(C)C)c1nnc(C)n1-2 [NCGC00250412-19] | -47.1
Nc1nc(OCc2ccccc2)c2nc[nH]c2n1 + Cc1sc2c(c1C)C(c1ccc(Cl)cc1)=N[C@@H](CC(=O)OC(C)(C)C)c1nnc(C)n1-2 [NCGC00250412-19] | -110
CC1=C(/C=C/C(C)=C/C=C/C(C)=C\C(=O)O)C(C)(C)CCC1 + Cc1sc2c(c1C)C(c1ccc(Cl)cc1)=N[C@@H](CC(=O)OC(C)(C)C)c1nnc(C)n1-2 [NCGC00250412-19] | -323
NC(N)=Nc1nc(CSCC/C(N)=N/S(N)(=O)=O)cs1 + Cc1sc2c(c1C)C(c1ccc(Cl)cc1)=N[C@@H](CC(=O)OC(C)(C)C)c1nnc(C)n1-2 [NCGC00250412-19] | -87.3
COc1ccc(-c2ccc3c(N4CCOCC4)nc(N4C[C@@H](C)O[C@@H](C)C4)nc3n2)cc1CO + Cc1sc2c(c1C)C(c1ccc(Cl)cc1)=N[C@@H](CC(=O)OC(C)(C)C)c1nnc(C)n1-2 [NCGC00250412-19] | -237
OC(CN1CCN(c2cccc(Cl)c2)CC1)C(c1ccccc1)c1ccccc1 (stereo unspecified) + Cc1sc2c(c1C)C(c1ccc(Cl)cc1)=N[C@@H](CC(=O)OC(C)(C)C)c1nnc(C)n1-2 [NCGC00250412-19] | -205
O=c1[nH]c2ccc(Cl)cc2c(N[C@@H]2CN3CCC2CC3)c1-c1nc2ccccc2[nH]1 + Cc1sc2c(c1C)C(c1ccc(Cl)cc1)=N[C@@H](CC(=O)OC(C)(C)C)c1nnc(C)n1-2 [NCGC00250412-19] | -88.4
COc1cc(OC)c(/C=C/S(=O)(=O)Cc2ccc(OC)c(NCC(=O)O)c2)c(OC)c1 + Cc1sc2c(c1C)C(c1ccc(Cl)cc1)=N[C@@H](CC(=O)OC(C)(C)C)c1nnc(C)n1-2 [NCGC00250412-19] | -242
CC(C)c1ccc(Cn2ccc3c4c(N)nc(NC5CC5)nc4ccc32)cc1 + Cc1sc2c(c1C)C(c1ccc(Cl)cc1)=N[C@@H](CC(=O)OC(C)(C)C)c1nnc(C)n1-2 [NCGC00250412-19] | -256

Structure (SMILES) | excess over highest single agent
CCCCCCCc1ccc(CCc2cccc(O)c2C(=O)O)cc1 + Cc1sc2c(c1C)C(c1ccc(Cl)cc1)=N[C@@H](CC(=O)OC(C)(C)C)c1nnc(C)n1-2 [NCGC00250412-19] | -277
CC(C)(N)C(=O)N[C@H](COCc1ccccc1)C(=O)N1CCC2(CC1)CN(S(C)(=O)=O)c1ccccc12 + Cc1sc2c(c1C)C(c1ccc(Cl)cc1)=N[C@@H](CC(=O)OC(C)(C)C)c1nnc(C)n1-2 [NCGC00250412-19] | -36
Cc1ccc([N+](=O)[O-])cc1S(=O)(=O)N(C)/N=C/c1cnc2ccc(Br)cn12 + Cc1sc2c(c1C)C(c1ccc(Cl)cc1)=N[C@@H](CC(=O)OC(C)(C)C)c1nnc(C)n1-2 [NCGC00250412-19] | -135
CN1CCN(c2c(F)cc3c(=O)c(C(=O)O)cn4c3c2OCN4C)CC1 + Cc1sc2c(c1C)C(c1ccc(Cl)cc1)=N[C@@H](CC(=O)OC(C)(C)C)c1nnc(C)n1-2 [NCGC00250412-19] | -15.3
CCCCCCCCCCCCc1ccc(S(=O)(=O)Nc2nncs2)cc1 + Cc1sc2c(c1C)C(c1ccc(Cl)cc1)=N[C@@H](CC(=O)OC(C)(C)C)c1nnc(C)n1-2 [NCGC00250412-19] | 63.3
C[C@H]1[C@H](C)CC[C@]2(C(=O)O)CC[C@]3(C)C(=CC[C@@H]4[C@@]5(C)C[C@@H](O)[C@H](O)[C@@](C)(CO)[C@@H]5CC[C@]43C)[C@H]12 + Cc1sc2c(c1C)C(c1ccc(Cl)cc1)=N[C@@H](CC(=O)OC(C)(C)C)c1nnc(C)n1-2 [NCGC00250412-19] | 23.2
CN[C@@H]1C[C@H]2O[C@@](C)([C@@H]1OC)n1c3ccccc3c3c4c(c5c6ccccc6n2c5c31)C(=O)N[C@H]4O + Cc1sc2c(c1C)C(c1ccc(Cl)cc1)=N[C@@H](CC(=O)OC(C)(C)C)c1nnc(C)n1-2 [NCGC00250412-19] | -378
O=C(CCCCCCC(=O)Nc1ccc([C@H]2O[C@@H](CSc3nc(-c4ccccc4)c(-c4ccccc4)o3)C[C@@H](c3ccc(CO)cc3)O2)cc1)NO + Cc1sc2c(c1C)C(c1ccc(Cl)cc1)=N[C@@H](CC(=O)OC(C)(C)C)c1nnc(C)n1-2 [NCGC00250412-19] | -155
CN(Cc1cnc2nc(N)nc(N)c2n1)c1ccc(C(=O)N[C@@H](CCC(=O)O)C(=O)O)cc1 + Cc1sc2c(c1C)C(c1ccc(Cl)cc1)=N[C@@H](CC(=O)OC(C)(C)C)c1nnc(C)n1-2 [NCGC00250412-19] | -237
C[C@]1(CO)CN(c2cc(C(=O)Nc3ccc4c(c3)-c3c(c(C(N)=O)nn3-c3ccc(F)cc3)CC4)c(Cl)cn2)C[C@@]1(C)CO + Cc1sc2c(c1C)C(c1ccc(Cl)cc1)=N[C@@H](CC(=O)OC(C)(C)C)c1nnc(C)n1-2 [NCGC00250412-19] | -78.9
Cc1n[nH]c(C)c1Cc1sc2c(c1C(=O)N1C[C@H](O)CO1)c(=O)n(C)c(=O)n2CC(C)C + Cc1sc2c(c1C)C(c1ccc(Cl)cc1)=N[C@@H](CC(=O)OC(C)(C)C)c1nnc(C)n1-2 [NCGC00250412-19] | -210
CNCC(O)c1ccc(O)cc1 (stereo unspecified) + Cc1sc2c(c1C)C(c1ccc(Cl)cc1)=N[C@@H](CC(=O)OC(C)(C)C)c1nnc(C)n1-2 [NCGC00250412-19] | -66.2
C=CCNc1c(O)cc2c(O)c1C[C@@H](C)C[C@H](OC)[C@H](O)[C@@H](C)/C=C(\C)[C@H](OC(N)=O)[C@@H](OC)/C=C\C=C(/C)C(=O)N2 + Cc1sc2c(c1C)C(c1ccc(Cl)cc1)=N[C@@H](CC(=O)OC(C)(C)C)c1nnc(C)n1-2 [NCGC00250412-19] | -198
Cc1cc(-c2ncc(CC(=O)Nc3ccc(-c4cnccn4)cn3)cc2C)ccn1 + Cc1sc2c(c1C)C(c1ccc(Cl)cc1)=N[C@@H](CC(=O)OC(C)(C)C)c1nnc(C)n1-2 [NCGC00250412-19] | 192
Cc1cnc(C(=O)NCCc2ccc(S(=O)(=O)NC(=O)NC3CCCCC3)cc2)cn1 + Cc1sc2c(c1C)C(c1ccc(Cl)cc1)=N[C@@H](CC(=O)OC(C)(C)C)c1nnc(C)n1-2 [NCGC00250412-19] | -41.1
CC[C@@H]1[C@@H](C)O[C@@](O)([C@@H](C)[C@H](O)[C@H](C)[C@H]2OC(=O)/C=C/C=C/[C@H](C)[C@@H]([C@@H](C)[C@@H](O)[C@H](C)[C@@]3(O)C[C@@H](O[C@H]4C[C@H](O)[C@H](O)[C@H](C)O4)[C@H](CC)[C@@H](C)O3)OC(=O)/C=C/C=C/[C@@H]2C)C[C@H]1O[C@H]1C[C@H](O)[C@H](O)[C@H](C)O1 + Cc1sc2c(c1C)C(c1ccc(Cl)cc1)=N[C@@H](CC(=O)OC(C)(C)C)c1nnc(C)n1-2 [NCGC00250412-19] | -180
CN(C)c1nc(Cc2ccc(NC(=O)c3ccc4ccccc4c3)cc2)nc(Cl)c1CC(=O)O + Cc1sc2c(c1C)C(c1ccc(Cl)cc1)=N[C@@H](CC(=O)OC(C)(C)C)c1nnc(C)n1-2 [NCGC00250412-19] | -81.3
O=C1[C@H](CC[C@H](O)c2ccc(F)cc2)[C@@H](c2ccc(O)cc2)N1c1ccc(F)cc1 + Cc1sc2c(c1C)C(c1ccc(Cl)cc1)=N[C@@H](CC(=O)OC(C)(C)C)c1nnc(C)n1-2 [NCGC00250412-19] | -29.7

Shown in markdown: entries from further up.

| Structure (SMILES) | excess over highest single agent |
| --- | --- |
| O=C(CCCCCCC(=O)Nc1ccc([C@H]2O[C@@H](CSc3nc(-c4ccccc4)c(-c4ccccc4)o3)C[C@@H](c3ccc(CO)cc3)O2)cc1)NO + Cc1sc2c(c1C)C(c1ccc(Cl)cc1)=N[C@@H](CC(=O)OC(C)(C)C)c1nnc(C)n1-2 [NCGC00250412-19] | -155 |
| CN(Cc1cnc2nc(N)nc(N)c2n1)c1ccc(C(=O)N[C@@H](CCC(=O)O)C(=O)O)cc1 + Cc1sc2c(c1C)C(c1ccc(Cl)cc1)=N[C@@H](CC(=O)OC(C)(C)C)c1nnc(C)n1-2 [NCGC00250412-19] | -237 |
